Reference: publication PMC11213948 (2024)
Results are given in words; binding and its absence hold for the method and conditions named. In cells and extracts the contact can be indirect. Here binding means that the protein was enriched with, or labelled near, the bait; the list need not be complete. For some of these results: No binding means not detected with the bait.

By UniProt entry, the sequences of proteins in these tests, tags left out. Where a name states a change or a piece, a line headed by the entry shows the natural chain unless it says otherwise. Chains listed by the source or under a name are the forms on record and can include a tag or linker. Residues count along the entry.
UniProt Q8TEQ6: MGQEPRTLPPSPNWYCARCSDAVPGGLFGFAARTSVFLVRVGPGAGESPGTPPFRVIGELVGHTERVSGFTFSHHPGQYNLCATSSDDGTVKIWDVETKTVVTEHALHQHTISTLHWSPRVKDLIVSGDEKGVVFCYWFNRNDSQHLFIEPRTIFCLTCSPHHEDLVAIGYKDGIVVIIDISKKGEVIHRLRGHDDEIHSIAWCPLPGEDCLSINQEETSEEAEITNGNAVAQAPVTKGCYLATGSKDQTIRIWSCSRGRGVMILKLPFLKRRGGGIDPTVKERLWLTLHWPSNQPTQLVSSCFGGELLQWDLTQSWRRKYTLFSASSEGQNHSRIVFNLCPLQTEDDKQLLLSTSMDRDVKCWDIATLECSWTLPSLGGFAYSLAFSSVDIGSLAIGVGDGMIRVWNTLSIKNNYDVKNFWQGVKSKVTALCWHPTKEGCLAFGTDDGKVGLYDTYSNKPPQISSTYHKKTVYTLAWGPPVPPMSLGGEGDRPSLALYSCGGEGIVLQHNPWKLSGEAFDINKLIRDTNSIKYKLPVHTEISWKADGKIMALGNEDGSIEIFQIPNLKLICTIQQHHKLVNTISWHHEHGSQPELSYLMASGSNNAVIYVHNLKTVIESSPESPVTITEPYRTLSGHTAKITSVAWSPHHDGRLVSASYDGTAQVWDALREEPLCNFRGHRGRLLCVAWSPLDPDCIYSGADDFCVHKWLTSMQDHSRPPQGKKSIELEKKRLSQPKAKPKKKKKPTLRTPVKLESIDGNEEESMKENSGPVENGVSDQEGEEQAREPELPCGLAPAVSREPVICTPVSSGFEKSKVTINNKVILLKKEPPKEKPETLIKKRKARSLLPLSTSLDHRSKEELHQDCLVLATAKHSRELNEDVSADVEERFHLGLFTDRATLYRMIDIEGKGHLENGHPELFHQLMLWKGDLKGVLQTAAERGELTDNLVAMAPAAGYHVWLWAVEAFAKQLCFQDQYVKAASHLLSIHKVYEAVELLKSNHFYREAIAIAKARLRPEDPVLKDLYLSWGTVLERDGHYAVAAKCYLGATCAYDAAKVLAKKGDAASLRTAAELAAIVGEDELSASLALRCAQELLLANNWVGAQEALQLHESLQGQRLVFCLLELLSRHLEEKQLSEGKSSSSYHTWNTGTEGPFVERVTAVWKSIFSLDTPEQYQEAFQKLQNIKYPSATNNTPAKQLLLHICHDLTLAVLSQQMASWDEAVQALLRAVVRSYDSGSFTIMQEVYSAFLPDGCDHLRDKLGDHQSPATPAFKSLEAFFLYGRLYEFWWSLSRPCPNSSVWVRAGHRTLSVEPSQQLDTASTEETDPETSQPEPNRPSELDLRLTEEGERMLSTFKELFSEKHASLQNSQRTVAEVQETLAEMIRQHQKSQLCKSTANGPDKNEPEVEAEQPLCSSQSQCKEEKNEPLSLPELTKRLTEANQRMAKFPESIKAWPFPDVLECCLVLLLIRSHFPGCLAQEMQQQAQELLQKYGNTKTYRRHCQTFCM
TAP-tagged G5_(1–1287): residues 1-1287 of Q8TEQ6
TAP-tagged G5_(1–739): residues 1-739 of Q8TEQ6
TAP-tagged G5_(845–1508): residues 845-1508 of Q8TEQ6
TAP-tagged G5_(845–1508)AxE (Q8TEQ6, form named): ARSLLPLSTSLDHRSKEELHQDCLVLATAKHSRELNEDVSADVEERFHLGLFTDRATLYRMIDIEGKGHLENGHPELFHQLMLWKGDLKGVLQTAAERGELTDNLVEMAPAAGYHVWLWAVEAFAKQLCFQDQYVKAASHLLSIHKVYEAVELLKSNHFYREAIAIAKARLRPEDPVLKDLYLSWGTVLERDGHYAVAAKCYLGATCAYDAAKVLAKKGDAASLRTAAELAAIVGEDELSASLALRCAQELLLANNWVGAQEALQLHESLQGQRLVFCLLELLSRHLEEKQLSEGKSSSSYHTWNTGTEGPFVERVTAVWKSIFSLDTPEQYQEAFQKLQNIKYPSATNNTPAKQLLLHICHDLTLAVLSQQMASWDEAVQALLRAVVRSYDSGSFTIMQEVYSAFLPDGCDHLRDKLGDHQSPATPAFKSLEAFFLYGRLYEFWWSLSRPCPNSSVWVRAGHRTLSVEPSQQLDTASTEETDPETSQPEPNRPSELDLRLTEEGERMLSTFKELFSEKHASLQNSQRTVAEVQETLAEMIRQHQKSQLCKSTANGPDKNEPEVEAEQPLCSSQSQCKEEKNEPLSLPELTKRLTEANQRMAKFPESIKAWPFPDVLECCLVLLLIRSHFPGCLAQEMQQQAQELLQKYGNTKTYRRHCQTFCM
UniProt P11940: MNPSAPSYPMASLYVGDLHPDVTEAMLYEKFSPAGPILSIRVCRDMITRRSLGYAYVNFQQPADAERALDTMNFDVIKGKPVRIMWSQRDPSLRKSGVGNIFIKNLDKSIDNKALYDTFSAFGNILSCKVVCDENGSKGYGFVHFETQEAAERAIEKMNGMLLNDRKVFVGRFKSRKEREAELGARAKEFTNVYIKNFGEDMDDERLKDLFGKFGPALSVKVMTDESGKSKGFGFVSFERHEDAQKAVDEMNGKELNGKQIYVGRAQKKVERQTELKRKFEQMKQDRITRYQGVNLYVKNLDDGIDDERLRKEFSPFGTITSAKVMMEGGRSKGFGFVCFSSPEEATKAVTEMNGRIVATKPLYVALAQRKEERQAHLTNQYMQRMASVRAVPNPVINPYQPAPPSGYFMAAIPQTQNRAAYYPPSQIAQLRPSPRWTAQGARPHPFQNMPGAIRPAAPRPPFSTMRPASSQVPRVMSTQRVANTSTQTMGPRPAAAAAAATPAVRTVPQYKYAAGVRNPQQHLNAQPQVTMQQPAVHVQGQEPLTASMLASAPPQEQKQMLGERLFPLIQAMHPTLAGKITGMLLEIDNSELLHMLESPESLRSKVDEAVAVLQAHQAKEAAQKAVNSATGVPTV
UniProt O14893: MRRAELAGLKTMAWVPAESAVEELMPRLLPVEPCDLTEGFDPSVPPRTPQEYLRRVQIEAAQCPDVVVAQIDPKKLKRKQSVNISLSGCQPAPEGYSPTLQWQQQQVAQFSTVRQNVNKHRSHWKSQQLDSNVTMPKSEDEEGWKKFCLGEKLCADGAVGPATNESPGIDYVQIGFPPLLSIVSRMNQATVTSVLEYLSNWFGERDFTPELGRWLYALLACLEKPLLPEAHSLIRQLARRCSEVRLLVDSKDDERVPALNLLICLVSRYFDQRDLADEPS
UniProt Q8WXD5: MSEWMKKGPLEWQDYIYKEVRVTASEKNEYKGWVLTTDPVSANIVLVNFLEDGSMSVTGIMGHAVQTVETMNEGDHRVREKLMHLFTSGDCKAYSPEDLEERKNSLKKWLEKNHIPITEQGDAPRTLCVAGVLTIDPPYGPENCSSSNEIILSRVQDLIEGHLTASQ
UniProt P57678: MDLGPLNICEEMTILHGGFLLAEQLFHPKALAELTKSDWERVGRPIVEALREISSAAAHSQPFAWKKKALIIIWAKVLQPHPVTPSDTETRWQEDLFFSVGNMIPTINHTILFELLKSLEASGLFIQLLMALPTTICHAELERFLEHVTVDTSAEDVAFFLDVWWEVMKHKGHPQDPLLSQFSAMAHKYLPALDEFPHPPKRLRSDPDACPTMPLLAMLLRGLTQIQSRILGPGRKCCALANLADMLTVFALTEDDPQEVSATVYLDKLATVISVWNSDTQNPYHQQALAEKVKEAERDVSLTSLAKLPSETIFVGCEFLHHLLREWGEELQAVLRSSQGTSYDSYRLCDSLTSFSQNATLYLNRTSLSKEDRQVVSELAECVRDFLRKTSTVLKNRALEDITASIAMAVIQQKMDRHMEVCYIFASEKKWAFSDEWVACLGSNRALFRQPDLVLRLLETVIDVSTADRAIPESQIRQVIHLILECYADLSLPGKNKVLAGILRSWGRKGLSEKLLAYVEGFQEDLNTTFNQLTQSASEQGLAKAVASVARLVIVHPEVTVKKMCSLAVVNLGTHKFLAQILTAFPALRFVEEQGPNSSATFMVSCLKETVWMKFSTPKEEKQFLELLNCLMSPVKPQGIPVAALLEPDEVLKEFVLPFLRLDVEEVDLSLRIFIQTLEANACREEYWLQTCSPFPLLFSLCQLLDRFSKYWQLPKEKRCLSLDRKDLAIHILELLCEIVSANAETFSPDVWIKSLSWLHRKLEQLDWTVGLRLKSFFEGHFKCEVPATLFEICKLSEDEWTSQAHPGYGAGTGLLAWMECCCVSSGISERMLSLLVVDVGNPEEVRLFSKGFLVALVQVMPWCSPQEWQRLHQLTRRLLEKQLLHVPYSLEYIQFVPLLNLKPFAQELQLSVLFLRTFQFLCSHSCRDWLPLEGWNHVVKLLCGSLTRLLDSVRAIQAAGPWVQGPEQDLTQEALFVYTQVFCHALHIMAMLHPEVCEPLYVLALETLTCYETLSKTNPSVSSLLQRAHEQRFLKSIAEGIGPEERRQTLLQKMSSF
UniProt Q9UHI6: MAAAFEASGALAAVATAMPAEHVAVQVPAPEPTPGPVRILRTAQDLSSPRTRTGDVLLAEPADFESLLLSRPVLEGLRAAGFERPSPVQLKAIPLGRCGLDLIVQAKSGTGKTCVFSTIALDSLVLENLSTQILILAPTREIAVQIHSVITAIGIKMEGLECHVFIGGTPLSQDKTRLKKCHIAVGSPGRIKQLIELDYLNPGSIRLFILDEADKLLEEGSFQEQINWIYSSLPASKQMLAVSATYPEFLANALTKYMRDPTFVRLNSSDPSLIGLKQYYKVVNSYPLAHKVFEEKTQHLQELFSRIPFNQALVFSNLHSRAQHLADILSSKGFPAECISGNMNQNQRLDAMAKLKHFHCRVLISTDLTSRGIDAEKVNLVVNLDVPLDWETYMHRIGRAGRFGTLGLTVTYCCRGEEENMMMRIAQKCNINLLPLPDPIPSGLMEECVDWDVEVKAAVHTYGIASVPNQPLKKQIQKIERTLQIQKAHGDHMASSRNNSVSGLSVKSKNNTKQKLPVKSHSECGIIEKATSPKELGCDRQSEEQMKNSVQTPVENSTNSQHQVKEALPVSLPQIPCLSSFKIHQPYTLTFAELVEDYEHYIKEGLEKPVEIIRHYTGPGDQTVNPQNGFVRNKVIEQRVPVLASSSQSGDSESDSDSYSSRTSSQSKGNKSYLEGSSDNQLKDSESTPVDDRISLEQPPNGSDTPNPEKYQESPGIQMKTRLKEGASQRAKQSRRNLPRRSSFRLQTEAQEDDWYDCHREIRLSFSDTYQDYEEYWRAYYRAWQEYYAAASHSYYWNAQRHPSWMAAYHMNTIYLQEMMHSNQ
UniProt Q16637: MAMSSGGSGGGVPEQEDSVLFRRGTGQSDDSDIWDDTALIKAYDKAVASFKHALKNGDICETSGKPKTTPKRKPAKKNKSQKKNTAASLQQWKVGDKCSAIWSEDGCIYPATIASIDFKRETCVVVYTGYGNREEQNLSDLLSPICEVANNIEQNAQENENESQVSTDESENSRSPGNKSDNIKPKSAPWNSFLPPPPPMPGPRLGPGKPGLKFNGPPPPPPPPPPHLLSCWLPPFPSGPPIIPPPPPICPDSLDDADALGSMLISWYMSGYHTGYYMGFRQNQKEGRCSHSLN

B1: Gemin8 (protein, UniProt Q9NWZ8 1-242)
chain: MAAVKASTSKATRPWYSHPVYARYWQHYHQAMAWMQSHHNAYRKAVESCFNLPWYLPSALLPQSSYDNEAAYPQSFYDHHVAWQDYPCSSSHFRRSGQHPRYSSRIQASTKEDQALSKEEEMETESDAEVECDLSNMEITEELRQYFAETERHREERRRQQQLDAERLDSYVNADHDLYCNTRRSVEAPTERPGERRQAEMKRLYGDSAAKIQAMEAAVQLSFDKHCDRKQPKYWPVIPLKF

What was measured:
Experiment in all cases: affinity purification with mass spectrometry; TAP (two steps, TEV digestion then calmodulin) of TAP-tagged Gemin5 regions from transfected HEK293 cells, LC-MS/MS; no RNase
TAP-tagged G5_(1–739) = TAP-tagged G5_(1–739) (UniProt Q8TEQ6)
TAP-tagged G5_(845–1508) = TAP-tagged G5_(845–1508) (UniProt Q8TEQ6)
TAP-tagged G5_(1–1287) = TAP-tagged G5_(1–1287) (UniProt Q8TEQ6)
[1] = molecular target: TAP-tagged G5_(845–1508)AxE (UniProt Q8TEQ6)

| Molecule | binding (TAP-tagged G5_(1–739)) | binding (TAP-tagged G5_(845–1508)) | binding (TAP-tagged G5_(1–1287)) | binding [1] |
| --- | --- | --- | --- | --- |
| poly(A) binding protein cytoplasmic 1 (from UniProt P11940 1-636) | binds | binds | binds | no binding |
| Gemin2 (from UniProt O14893 1-280) |  | binds | binds |  |
| Gemin6 (from UniProt Q8WXD5 1-167) |  | binds | binds |  |
| Gemin4 (from UniProt P57678 1-1058) | no binding | binds | binds | no binding |
| endogenous Gemin5 (from UniProt Q8TEQ6 1-1508) | no binding | binds |  |  |
| Gemin3 (from UniProt Q9UHI6 1-824) | no binding | binds | binds |  |
| SMN (from UniProt Q16637 1-294) | no binding | binds | binds |  |
| B1 |  | binds | binds |  |
